Laboratory results taken from PubChem BioAssay AID1347075 (National Center for Advancing Translational Sciences (NCATS), 2019).
About 5,500 (1.4%) of roughly 400,000 compounds were called active. This list was built around the results that the source calls inconclusive (neither active nor inactive); the mix of calls is not that of the screen. The call rests on the fitted dose curve; in most records, active means well fitted cell-killing curve with a large enough effect; inconclusive means small, poorly fitted or top-dose-only effect, or effect the other way; inactive means flat fitted curve, though single readings scatter. Potencies beside an inconclusive call are fits to weak or partial responses and may not hold up.

Assay: qHTS assay for MDR1-selective chemotherapeutics: Primary screen using the parental adenocarcinoma cell KB-3-1; further: nearly all actives have a fitted effect of over 60% in size
Settings: KB-3-1 viability, CellTiter-Glo ATP luminescence, 72 h; activity change, negative = cytotoxic: at 46.1 µM (top of the series)
In short: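 Parental KB-3-1 viability, qHTS format: 72 h compound exposure, 37 °C; CellTiter-Glo; media-only wells and DMSO plates as controls; concentration-effect fits on corrected data.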
On the % scale 0 is the no-effect control and ±100 the full control effect; potency means the concentration at half of the fitted maximal effect.

SMILES | Potency | activity change, negative = cytotoxic
CC(OC(=O)c1ccccc1NS(=O)(=O)c1cccc(N)c1)C(=O)N(C)Cc1ccccc1 (configuration not stated) | inconclusive: 29.1 µM [cytotoxic, single point] | 
O=C(NC1CCN(c2ncccn2)CC1)c1ccccc1Cl |  | inactive: -0.514%
Oc1ccc(C[C@H]2CNC(=S)N2CC2CCCN2C[C@H](Cc2ccccc2)N2C[C@H](Cc3ccc(O)cc3)N(CCc3ccccc3)C2=S)cc1 (some centres not stated) | inconclusive: 29.1 µM [cytotoxic, single point] | 
COCCNC(=O)C1CCCN(S(=O)(=O)c2c(C)noc2/C=C/c2cccs2)C1 (configuration not stated) |  | inactive: -0.491%
COC(=O)[C@]12CCCCC=C1N(Cc1cccc3ccccc13)C(=O)[C@H](CC(=O)NCc1ccccc1)C2 | inconclusive: 18.4 µM [cytotoxic, single point] | 
Oc1ccc(N=Cc2ccc(O)c(O)c2)cc1 | inconclusive: 29.1 µM [cytotoxic, single point] | 
O=C(CSc1nc2ccc([N+](=O)[O-])cc2s1)NC1CCS(=O)(=O)C1 (configuration not stated) | inconclusive: 29.1 µM [rising, single point] | 
COc1ccc(N2CCN(C(=O)c3ccc(NS(=O)(=O)c4cccc(F)c4)cc3)CC2)cc1 | inconclusive: 8.2 µM [cytotoxic, partial curve, poor fit] | 
CCC(=O)Nc1cccc(NC(=S)NC(=O)c2cccc(C)c2)c1 | inconclusive: 29.1 µM [cytotoxic, single point] | 
O=C(NC1CCN(Cc2ccccc2)CC1)c1cccc(S(=O)(=O)Nc2cc(C(F)(F)F)ccc2Cl)c1 | inconclusive: 23.1 µM [cytotoxic, partial curve, poor fit] | 
Cc1cc(O)c(C2(O)C(=O)Nc3cc(Br)ccc32)cc1C (configuration not stated) | inconclusive: 0.0065 µM [rising, full curve] | 
CC(SCc1ccccc1)C(=O)N/N=C/c1ccc(OCC(=O)NCc2ccco2)cc1 (configuration not stated) | inconclusive: 16.4 µM [cytotoxic, single point] | 
COC(=O)COc1cccc2c(=O)n(CC(=O)NCc3ccccc3)ccc12 | active: 6.51 µM | 
COc1ccc(CC2C(=O)NC(C)C(=O)N(C)C3Cc4ccc(cc4)Oc4cc(ccc4O)CC(C(=O)NC(C)C(=O)NC(C)C(=O)N2C)N(C)C3=O)cc1 (configuration not stated) | active: 0.231 µM | 
Cc1cc(C)n(-c2ccc(C(=O)Nc3cccnc3Cl)cc2)n1 | inconclusive: 29.1 µM [cytotoxic, single point] | 
Nc1nnc(Cc2ccc(Cl)c(Cl)c2)s1 |  | inactive: 6.7%
COc1ccc(CNC(=O)CCc2c(C)nc3cc(-c4ccccc4OC)nn3c2C)cc1 | inconclusive: 14.6 µM [rising, partial curve, poor fit] | 
N#Cc1c(NC(=O)COC(=O)C2CC3C=CC2C3)oc(-c2ccccc2)c1-c1ccccc1 (configuration not stated) |  | inactive: -9.74%
CC(C)NOC(=O)c1ccc(Cl)cc1 | inconclusive: 29.1 µM [cytotoxic, single point] | 
CCOC(=O)C1CCN(C(=O)CCc2c(C)nc3cc(-c4ccc(OC)cc4OC)nn3c2C)CC1 |  | inactive: 3.8%
O=C(CNC(=S)NC(=O)c1ccc(Cl)cc1)c1ccccc1 |  | inactive: 15%
COc1ccc(-c2cc3c(=O)n(CC(=O)NCc4cccnc4)ncn3n2)cc1 | inconclusive: 29.1 µM [cytotoxic, single point] | 
Cn1c(=O)c2sccc2n2c(CCCC(=O)NCCc3ccccc3)nnc12 |  | inactive: -1.81%

A second format for part of the listing above:

| SMILES | Potency | activity change, negative = cytotoxic |
| --- | --- | --- |
| O=C(NC1CCN(c2ncccn2)CC1)c1ccccc1Cl |  | inactive: -0.514% |
| Oc1ccc(N=Cc2ccc(O)c(O)c2)cc1 | inconclusive: 29.1 µM [cytotoxic, single point] |  |
| COC(=O)COc1cccc2c(=O)n(CC(=O)NCc3ccccc3)ccc12 | active: 6.51 µM |  |
| N#Cc1c(NC(=O)COC(=O)C2CC3C=CC2C3)oc(-c2ccccc2)c1-c1ccccc1 (configuration not stated) |  | inactive: -9.74% |

(further entries)

SMILES | Potency | activity change, negative = cytotoxic
COc1cc(OC)c(/C=C/c2ccnc3ccccc23)c(OC)c1 | inconclusive: 32.6 µM [cytotoxic, single point] | 
Cc1cccc(C(=O)N[C@H](C(=O)Nc2ncc(C)s2)C(C)C)c1 | inconclusive: 23.1 µM [cytotoxic, single point] | 
CCNC(=O)c1cc2c(=O)n3cccc(C)c3nc2n(CCc2ccccc2)c1=N | inconclusive: 17.8 µM [cytotoxic, single point] | 
CCOC(=O)[C@]12CCCC=C1N(CCc1ccc(OC)c(OC)c1)C(=O)[C@H](CC(=O)NCC13CC4CC(CC(C4)C1)C3)C2 | inconclusive: 29.1 µM [cytotoxic, single point] | 
C#CCOc1ccc(-c2nnc(Nc3cccc(C)c3)c3ccccc23)cc1 | inconclusive: 29.1 µM [cytotoxic, single point] | 
COc1cnc(-c2ccccn2)nc1N(C)C | inconclusive: 29.1 µM [cytotoxic, single point] | 
Cc1nc2ccccc2n1CC(=O)NCc1ccccc1 | inconclusive: 16.4 µM [cytotoxic, single point] | 
CCn1c(SCC(=O)N/N=C/C=C\c2ccccc2[N+](=O)[O-])nnc1-c1ccccc1 | inconclusive: 18.4 µM [cytotoxic, single point] | 
COc1ccc(CC(=O)OCC(=O)NCc2ccc(Cl)cc2)cc1 | inconclusive: 0.82 µM [rising, full curve] | 
N/C(=N\NC(=O)c1ccc(F)cc1)c1cc2ccccc2oc1=O |  | inactive: -8.78%
CCOC(=O)N1CCN(C(=O)CN2C(=O)COc3ccc(S(=O)(=O)N4CCOCC4)cc32)CC1 | inconclusive: 0.411 µM [cytotoxic, full curve, poor fit] | 
Cc1cccc(C)c1N(CC(=O)N1CCCC1)S(C)(=O)=O |  | inconclusive: 33.1%
O=S(=O)(c1cc(F)ccc1F)N1CCC2(CC1)OCCN2S(=O)(=O)c1cccs1 | inconclusive: 14.6 µM [cytotoxic, single point] | 
Cc1cc(NC(=O)c2ccc(-c3ccccc3[N+](=O)[O-])o2)no1 |  | inactive: -2.36%
S=C1Cc2ccccc2C(c2ccc(Cl)cc2)N1 (configuration not stated) |  | inactive: -3.17%
CCOC(=O)c1cc2c(C)n(-c3ccc(OCC)cc3)c(C)c2ccc1=O | inconclusive: 23.1 µM [cytotoxic, single point] | 
CCN(CC)c1ccc(N=Cc2ccc([N+](=O)[O-])o2)cc1 | active: 18.4 µM | 
COc1ccc(NC(=O)c2ccc(NS(=O)(=O)c3cccc4cccnc34)cc2)cc1 |  | inactive: -3.24%
N#Cc1ccc(Nc2nc(-c3ccccc3)c(C(=O)c3ccccc3)s2)cc1 | inconclusive: 29.1 µM [cytotoxic, single point] | 
COc1cc(NC(=O)c2ccccc2)c(OC)cc1NC(=O)CN1CCCCC1 |  | inactive: 2.13%
CCN(CC)C(=O)Oc1ccc2c(=O)c(-c3ccc(OC)cc3)coc2c1 | inconclusive: 29.1 µM [cytotoxic, single point] | 
CC(C)CC1C(=O)N(Cc2cn(CCC3OCCO3)nn2)CCS(=O)(=O)N1Cc1ccc(-c2ccc(F)nc2)cc1 (configuration not stated) |  | inactive: -11%
COc1ccc(Cn2c(CCC(=O)NCc3ccco3)nc3cccnc32)cc1 |  | inactive: 7.22%

SMILES | Potency | activity change, negative = cytotoxic
COc1cc(OC)cc(C(=O)Nc2nc3ccccc3[nH]2)c1 | inconclusive: 29.1 µM [cytotoxic, single point] | 
Cc1sc2nc3ccc(N4CCCC4)nn3c(=O)c2c1C | inconclusive: 29.1 µM [cytotoxic, single point] | 
Cc1ccc2nc(-c3ccc(NC(=O)CSc4nc(N)cc(=O)[nH]4)cc3)sc2c1 | inconclusive: 2.06 µM [rising, partial curve, poor fit] | 
CCCCCn1c(=O)[nH]c2cc(C(=O)N3CCN(c4cccc(C)c4)C(C)C3)ccc2c1=O (configuration not stated) | inconclusive: 32.6 µM [cytotoxic, single point] | 
O=C(NCC12CC3CC(CC(C3)C1)C2)c1cc2nc(-c3ccccc3)cc(C(F)(F)F)n2n1 | inconclusive: 25.9 µM [cytotoxic, single point] | 
Cc1nc(N2CCOCC2)sc1C(=O)NN | inconclusive: 0.461 µM [rising, full curve] | 
COC(=O)c1cc2ccccc2c(-c2c(O)ccc3ccccc23)c1O | inconclusive: 29.1 µM [cytotoxic, single point] | 
O=C(CNC(=O)c1ccccc1)OC(C(=O)Nc1cc(C(F)(F)F)ccc1Cl)c1ccccc1 (configuration not stated) | inconclusive: 8.2 µM [rising, partial curve, poor fit] | 
CCCCNc1c(-c2cccc(-c3cc(C(C)=O)cs3)c2)nc2ccc(C)cn12 | inconclusive: 29.1 µM [cytotoxic, single point] | 
COc1ccc2[nH]c(=O)c(CNc3ccc(C)c(C)c3)cc2c1 | inconclusive: 25.9 µM [cytotoxic, single point] | 
O=C(O)CCC(=O)N(Cc1ccccc1)Cc1ccccc1 | inconclusive: 23.1 µM [cytotoxic, single point] | 
CCCCCCCCCCS(=O)(=O)N/N=C/c1ccc(O)cc1 |  | inactive: 8.1%
Cc1ccc2nc(Cl)c(/C=N/n3c(C)nnc3C)cc2c1 | inconclusive: 3.26 µM [rising, partial curve, poor fit] | 
Fc1ccc(-n2cc(-c3ccccc3)[n+]3c2SCC3)cc1 | inconclusive: 23.1 µM [cytotoxic, single point] | 
CNC(=O)c1cc(Nc2nnc(-c3ccc(O)cc3)c3ccccc23)ccc1OC | inactive | 
COc1ccccc1NC(=O)Nc1nc(CC(=O)NCc2ccc(F)cc2)cs1 |  | inactive: -15.7%
Fc1cc(Br)ccc1Nc1c2c(nc3nc(-c4cccs4)nn13)CCCC2 | inconclusive: 29.1 µM [cytotoxic, single point] | 
O=C(Nc1nc2ccc(F)cc2s1)C1=COCCO1 | inconclusive: 25.9 µM [cytotoxic, single point] | 
COc1ccc(Cc2nnc(NC(=O)c3ccc(OC(C)=O)cc3)s2)cc1OC |  | inactive: -51.7%
CC1CCCCC1NC(=O)CCC(=O)N1CCOc2ccc(Cl)cc21 (configuration not stated) |  | inactive: 4.42%
COc1ccc(OC)c(CCNc2ncnc3onc(-c4ccc(F)cc4)c23)c1 | inconclusive: 18.4 µM [cytotoxic, single point] | 
